Measured values as given in patent EP1028725B1, “USE OF VASOPRESSIN ANTAGONISTS FOR TREATING DISTURBANCES OR ILLNESSES OF THE INNER EAR” (Otogene Aktiengesellschaft, priority 1997, dated 2004).
For some assays here: Not every detail of the peptide structures is certain; ends, links or a residue may be inferred. For some assays here: For at least one compound, name, drawing or mass did not settle the structure. Non-standard residues stand in square brackets, D forms with d. Residues, ends and D or L forms follow the SMILES beside them. *: point of attachment. Abu = CC[C@H](N)C(=O)O; Propionyl = CCC(=O)*

Columns and labels:
[1] = system: Ribosomen-reiche Zellen (RRC) und Mitochondrien-reiche Zellen (MRC) des endolymphatischen Sacks; assay: FITC-dextran uptake (endocytosis / membrane turnover) in organotypic culture of the endolymphatic sac; assay type: cell-based, Ratte; conditions: 50 µM Forskolin; n = 48
[2] = system: Ribosomen-reiche Zellen (RRC) und Mitochondrien-reiche Zellen (MRC) des endolymphatischen Sacks; assay: as above; assay type: cell-based, Ratte; conditions: 10 nM H-9400 together with 10 nM Vasopressin; n = 30

Compound	FITC-Dextran-markierte Endosome [1]	Wirkung auf den Vasopressin-Effekt (FITC-Dextran gefüllte Endosome) [2]
C=C[C@@]1(C)CC(=O)[C@]2(O)[C@@]3(C)[C@@H](O)CCC(C)(C)[C@@H]3[C@H](O)[C@H](OC(C)=O)[C@@]2(C)O1 [Forskolin]	fast keine Endosome nachgewiesen	
CCOc1ccc(C[C@@H](NC(=O)CC)C(=O)N[C@@H](Cc2ccccc2)C(=O)N[C@H](C(=O)N[C@@H](CC(N)=O)C(=O)N[C@@H](CC)C(=O)N2CCC[C@H]2C(=O)N[C@@H](CCCNC(=N)N)C(=O)N[C@@H](CCCNC(=N)N)C(N)=O)C(C)C)cc1 [H-9400, Propionyl-D-Tyr(Et)-Phe-Val-Asn-Abu-Pro-Arg-Arg-NH2] (Propionyl-[dY](Et)FVN[Abu]PRR-NH2)		den Vasopressin-Effekt gemäß Abb. 5b aufhebt
